Results: PubChem BioAssay AID1439 (NMMLSC, 2008)
About 770 (0.35%) of roughly 220,000 compounds were called active. The shares of active, inactive and inconclusive entries below differ from those in the screen. Cut-off read from the data, not from the text of the source: active = binding response below about 49% or above about 150%; inconclusive = no clear call, values can overlap the other calls; inactive = in between.

Sequences of proteins named here, by UniProt entry; tags and fusion partners are left off.
UniProt P09471, whole entry, looked up: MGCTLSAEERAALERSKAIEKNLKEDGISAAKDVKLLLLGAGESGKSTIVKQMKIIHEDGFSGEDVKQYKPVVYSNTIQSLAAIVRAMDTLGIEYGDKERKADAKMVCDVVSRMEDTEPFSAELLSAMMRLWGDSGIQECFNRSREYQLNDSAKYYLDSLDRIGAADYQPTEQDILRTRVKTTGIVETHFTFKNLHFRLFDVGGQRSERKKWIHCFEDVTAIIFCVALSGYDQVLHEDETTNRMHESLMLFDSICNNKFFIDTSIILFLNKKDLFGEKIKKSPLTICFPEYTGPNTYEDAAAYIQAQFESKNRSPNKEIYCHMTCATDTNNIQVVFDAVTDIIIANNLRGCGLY

These compounds were tested against Guanine nucleotide-binding protein G(o) subunit alpha (Homo sapiens) (UniProt P09471) (assay: RGS7-Galphao binding modulators, primary screen, biochemical, multiplexed bead flow cytometry (AID 1439;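 note: fluorescent Galphao held in activated GDP-AlF4 state binding bead-coupled RGS7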)). Settings: at 10 µM, actives lie on both sides.

Which binding response (% of control) does the source give for `CCC(=O)Nc1cccc(C2=NOC3(C2)C[C@@H](C(N)=O)N(C(=O)CC(c2ccccc2)c2ccccc2)C3)c1` (some centres undefined) here?
The binding response (% of control) was inconclusive: 101%.

With `COc1ccc(NC(=O)C(Cc2ccccc2)n2cccc2)cc1` (centres undefined) as the compound, how does the binding response (% of control) read?
Its binding response (% of control) is inconclusive: 117%.

For `N#Cc1ccc(/C=N/NC(=S)Nc2ccc(S(=O)(=O)N3CCOCC3)cc2)cc1`, which binding response (% of control) is on record?
The binding response (% of control) was inconclusive: 121%.

How did the binding response (% of control) turn out when `Cc1ccc(CN2CCN(/N=C/c3ccc(Cl)c([N+](=O)[O-])c3)CC2)cc1` was run?
Its binding response (% of control) is inactive: 104%.

How did the binding response (% of control) turn out when `N#C/C(=C\c1ccc(OCc2cccc(C(=O)O)c2)cc1)C(=O)NCc1ccco1` was run?
Its binding response (% of control) is inconclusive: 472%.

With `C(#CCN1CCCC1)CC(c1ccccc1)c1ccccc1` as the compound, how does the binding response (% of control) read?
The binding response (% of control) was inactive: 102%.

`Cc1nc2ccc(NC(=O)c3ccc(Cl)nc3)cc2s1` was tested. Which binding response (% of control) did it give?
The binding response (% of control) was inconclusive: 136%.

For `O=C(NCc1ccccn1)C1CCCN(Cc2cnn(-c3ccccc3)c2-n2cccc2)C1` (centres undefined), which binding response (% of control) is on record?
The binding response (% of control) was inactive: 101%.

`O=C1c2nc3cc(-c4ccco4)[nH]n3c(=O)c2CN1Cc1ccccc1` was tested. Which binding response (% of control) did it give?
Its binding response (% of control) is inconclusive: 101%.

`CN1CCN(c2c(F)cc3c(=O)c(C(=O)O)cn4c3c2OCN4C)CC1` was tested. Which binding response (% of control) did it give?
Its binding response (% of control) is inconclusive: 83%.

Which binding response (% of control) does the source give for `c1ccc(-c2nnsc2-c2nc3ccccc3[nH]2)cc1` here?
The binding response (% of control) was inactive: 62%.

How did the binding response (% of control) turn out when `CCOC(=O)c1sc(NC(=O)CNCc2ccccn2)c(C(=O)OCC)c1C` was run?
Its binding response (% of control) is inconclusive: 89.5%.

How did the binding response (% of control) turn out when `CSc1ccc(C#N)cc1NC(=O)c1cccnc1Cl` was run?
The binding response (% of control) was inconclusive: 87.3%.

`C/C(=N\NC(=O)Cc1cccn1C)c1ccco1` was tested. Which binding response (% of control) did it give?
The binding response (% of control) was inconclusive: 91.2%.

`NNC(=O)CSCc1nc(-c2ccccc2)cs1` was tested. Which binding response (% of control) did it give?
The binding response (% of control) was inconclusive: 117%.

For `Cc1ccc(C(=O)N2CCC3(CC2)Oc2ccc(Cl)cc2C(=O)C32CC(c3ccc(Cl)cc3)=NO2)s1` (centres undefined), which binding response (% of control) is on record?
Its binding response (% of control) is inconclusive: 131%.

For `O=C(NNC1=Nc2cc([N+](=O)[O-])ccc2OC1)c1ccccc1Cl`, which binding response (% of control) is on record?
Its binding response (% of control) is inconclusive: 69.4%.

`CCOC(=O)C1CCCN(CC(=O)c2c[nH]c3ccc(C)cc23)C1` (centres undefined) was tested. Which binding response (% of control) did it give?
The binding response (% of control) was inconclusive: 143%.

Which binding response (% of control) does the source give for `COc1ccc(NC(=O)CCCn2c(=O)oc3ccccc32)cc1Cl` here?
The binding response (% of control) was inactive: 88.7%.

With `CCN1CCN(C(=O)Nc2ccc(Cc3ccc(NC(=O)N4CCN(CC)CC4)cc3)cc2)CC1` as the compound, how does the binding response (% of control) read?
The binding response (% of control) was inactive: 98.1%.

Which binding response (% of control) does the source give for `Cc1cc(C(=O)CN2CCCC2)c(C)n1-c1ccc(Cl)cc1` here?
Its binding response (% of control) is inconclusive: 96.5%.

With `Cc1cc(N2CCCC2)nc2ccc(NC(=S)NC(C)C)cc12` as the compound, how does the binding response (% of control) read?
The binding response (% of control) was inconclusive: 117%.

For `O=C(NCCNC(=O)C1CC2CCC1C2)C1CC2CCC1C2` (centres undefined), which binding response (% of control) is on record?
The binding response (% of control) was active: 186% [activator].

How did the binding response (% of control) turn out when `CC(=O)Nc1ccc(-c2csc(Nc3ccc(S(N)(=O)=O)cc3)n2)cc1` was run?
The binding response (% of control) was inconclusive: 99.7%.
